PubChem BioAssay AID686938 | Drosophila RNAi Screening Center | 2013

- Screen: 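Looking for CRAC channel components and the factors controlling them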 (primary screen)
- Cell system: Drosophila S2R+ cells
- Knock-down reagent: long dsRNA against Drosophila genes, about 0.25 µg dsRNA per well, roughly 10,000 cells
- Time to read-out: 5 days of knock-down before the calcium assay
- Conditions: thapsigargin (SERCA pump blocker) to empty calcium stores; entry signal taken 4 min after adding it
- Detection: 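Per-well fluo-4 fluorescence in two replicates, unnormalised, measured in resting cells and 4 min after store depletion by the SERCA blocker thapsigargin; ratio of the two present in few wells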
- Reading the numbers: calcium entry signal: higher = stronger calcium signal after store depletion; entry to resting ratio: higher = more calcium entry relative to resting level; resting calcium signal: higher = higher resting calcium signal
- Hit rule: 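Called when the plate z-score of the entry-to-rest ratio, mean of duplicates, falls below −3; wells with low overall dye signal (Fmax z below −2) or more than five off-targets excluded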
- Meaning of the calls: active = strongly reduced calcium entry; inactive = no strong reduction
The screen tested about 23,000 reagents; shown is a random part of those with a known target gene and a result. In the full data, 75 (0.33%) are marked active. 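Raw plate signals without normalisation; calls rest on plate z-scores that were not deposited; ratio present for only 364 wells.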 Names joined by + are all predicted targets of the reagent. The record does not give: the dose of the treatment.

gene knocked down,dsRNA,"calcium entry signal, replicate 1 (fluorescence units)","calcium entry signal, replicate 2 (fluorescence units)",entry to resting ratio,"resting calcium signal, replicate 1 (fluorescence units)","resting calcium signal, replicate 2 (fluorescence units)",outcome
Gr68a,DRSC10803,2.27e7,3.62e7,,1.17e7,1.69e7,inactive
Apl,DRSC10350,3.98e7,5.98e7,,1.85e7,2.20e7,inactive
Tg,DRSC03047,2.59e7,3.72e7,,1.19e7,1.63e7,inactive
Ms,DRSC16041,4.22e7,2.70e7,,1.83e7,1.30e7,inactive
Proc-R,DRSC18410,2.75e7,4.19e7,,1.36e7,1.96e7,inactive
CG16781,DRSC18117,3.56e7,5.89e7,2.2,1.59e7,2.46e7,inactive
CG14237,DRSC14731,2.01e7,4.36e7,,1.32e7,1.90e7,inactive
CG14237,DRSC23239,3.22e7,3.93e7,,1.81e7,1.63e7,inactive
CG13360,DRSC18536,5.64e7,3.61e7,,2.46e7,1.84e7,inactive
Or19b + Or19a,DRSC22604,3.89e7,4.13e7,,2.41e7,1.93e7,inactive
CG18473,DRSC16381,2.19e7,1.55e7,,1.12e7,8.43e6,inactive
CG31917 + Tfb5,DRSC02362,4.21e7,3.80e7,,1.97e7,1.77e7,inactive
CG31917 + Tfb5,DRSC02363,3.45e7,2.34e7,,1.69e7,1.20e7,inactive
CG43110,DRSC05661,3.32e7,3.99e7,,1.71e7,2.01e7,inactive
hang,DRSC19901,3.76e7,3.98e7,,1.66e7,1.87e7,inactive
hang,DRSC19902,1.88e7,1.86e7,,1.00e7,9.10e6,inactive
hang,DRSC23216,3.58e7,3.56e7,,1.67e7,1.58e7,inactive
Vps25,DRSC06486,4.11e7,4.15e7,,2.04e7,1.65e7,inactive
CG8064,DRSC16373,2.87e7,2.84e7,,1.43e7,1.42e7,inactive
CG32284,DRSC08025,4.08e7,3.58e7,,1.66e7,1.50e7,inactive
Claspin,DRSC08308,6.78e7,3.86e7,,3.18e7,1.92e7,inactive
sws,DRSC18843,6.86e7,3.35e7,,3.03e7,1.85e7,inactive
Socs44A,DRSC06828,4.09e7,4.41e7,,1.93e7,1.82e7,inactive
Nmdmc,DRSC16760,3.16e7,4.25e7,,1.38e7,1.84e7,inactive
twr,DRSC12491,4.15e7,2.89e7,,1.98e7,1.43e7,inactive
CG32409,DRSC08780,4.17e7,4.95e7,,2.13e7,2.30e7,inactive
CG31848,DRSC01309,4.37e7,6.24e7,,2.12e7,2.60e7,inactive
pigeon,DRSC03565,4.39e7,,,2.35e7,,inactive
Cmtr1,DRSC18400,2.47e7,3.31e7,,1.21e7,1.57e7,inactive
Ir7e,DRSC18011,4.71e7,2.50e7,,2.11e7,1.27e7,inactive
RalGPS,DRSC06941,4.43e7,4.14e7,,1.95e7,2.03e7,inactive
CG12325,DRSC06130,2.99e7,2.77e7,,1.61e7,1.53e7,inactive
CG5767,DRSC06953,4.51e7,4.32e7,,1.98e7,2.11e7,inactive
snRNA:U1:95Cc + CG43285 (retired record),DRSC13640,2.63e7,3.57e7,,1.48e7,1.91e7,inactive

Already shown: entries from further up.
gene knocked down,dsRNA,"calcium entry signal, replicate 1 (fluorescence units)","calcium entry signal, replicate 2 (fluorescence units)",entry to resting ratio,"resting calcium signal, replicate 1 (fluorescence units)","resting calcium signal, replicate 2 (fluorescence units)",outcome
sws,DRSC18843,6.86e7,3.35e7,,3.03e7,1.85e7,inactive
Socs44A,DRSC06828,4.09e7,4.41e7,,1.93e7,1.82e7,inactive
Nmdmc,DRSC16760,3.16e7,4.25e7,,1.38e7,1.84e7,inactive
twr,DRSC12491,4.15e7,2.89e7,,1.98e7,1.43e7,inactive
CG32409,DRSC08780,4.17e7,4.95e7,,2.13e7,2.30e7,inactive
CG31848,DRSC01309,4.37e7,6.24e7,,2.12e7,2.60e7,inactive
pigeon,DRSC03565,4.39e7,,,2.35e7,,inactive
Cmtr1,DRSC18400,2.47e7,3.31e7,,1.21e7,1.57e7,inactive
Ir7e,DRSC18011,4.71e7,2.50e7,,2.11e7,1.27e7,inactive
RalGPS,DRSC06941,4.43e7,4.14e7,,1.95e7,2.03e7,inactive
CG12325,DRSC06130,2.99e7,2.77e7,,1.61e7,1.53e7,inactive

Additional reagents follow.
gene knocked down,dsRNA,"calcium entry signal, replicate 1 (fluorescence units)","calcium entry signal, replicate 2 (fluorescence units)",entry to resting ratio,"resting calcium signal, replicate 1 (fluorescence units)","resting calcium signal, replicate 2 (fluorescence units)",outcome
CG15629,DRSC00464,3.33e7,3.05e7,,1.58e7,1.45e7,inactive
spaw,DRSC06824,3.91e7,4.10e7,,1.88e7,1.76e7,inactive
thoc6,DRSC10528,5.76e7,4.96e7,,3.75e7,2.13e7,inactive
CG5664,DRSC11782,7.22e7,2.89e7,,2.98e7,1.48e7,inactive
CG42399,DRSC00322,3.43e7,3.80e7,,2.05e7,1.77e7,inactive
CG42399,DRSC00661,4.36e7,4.16e7,,2.03e7,1.80e7,inactive
Hibch,DRSC15705,4.44e7,5.16e7,,1.79e7,2.27e7,inactive
p23,DRSC15158,3.65e7,5.08e7,,1.62e7,2.21e7,inactive
CG40198,DRSC21068,6.71e7,4.72e7,,2.78e7,1.93e7,inactive
Cul2,DRSC03710,3.59e7,,,1.80e7,,inactive
Ack,DRSC08135,4.60e7,5.44e7,,2.64e7,2.63e7,inactive
g,DRSC20335,3.70e7,3.36e7,,1.90e7,1.64e7,inactive
CG15269,DRSC01942,4.55e7,2.23e7,,1.94e7,1.08e7,inactive
r-cup,DRSC20475,3.64e7,5.07e7,,1.98e7,2.22e7,inactive
IntS10,DRSC08173,2.92e7,4.19e7,,1.46e7,1.80e7,inactive
psidin,DRSC15660,2.80e7,3.32e7,,3.57e7,1.37e7,inactive
lectin-21Cb,DRSC00355,2.86e7,3.81e7,,1.40e7,1.72e7,inactive
CG13014,DRSC19533,2.70e7,3.16e7,,1.40e7,1.39e7,inactive
Vha14-1,DRSC07571,4.62e7,4.27e7,,3.61e7,1.84e7,inactive
l(3)87Df,DRSC16982,2.54e7,4.54e7,,1.20e7,5.98e7,inactive
CG11911,DRSC00331,3.91e7,,,2.16e7,,inactive
CG8750,DRSC11037,3.11e7,4.36e7,,1.67e7,1.90e7,inactive
pzg,DRSC11848,3.10e7,4.14e7,,1.63e7,2.81e7,inactive
per,DRSC18818,3.35e7,5.00e7,2,1.63e7,2.02e7,inactive
CG2267,DRSC15435,4.36e7,4.63e7,,2.19e7,2.08e7,inactive
CG10650,DRSC02085,5.85e7,,,2.65e7,,inactive
Dhit,DRSC07411,3.11e7,3.47e7,,1.53e7,1.61e7,inactive
nAChRbeta2,DRSC17010,3.85e7,2.56e7,,1.76e7,1.27e7,inactive
Roe1,DRSC07534,2.38e7,2.86e7,,1.20e7,1.37e7,inactive
CG5708,DRSC02881,3.11e7,4.05e7,,1.58e7,1.82e7,inactive
CG34159,DRSC02885,2.34e7,3.06e7,,1.35e7,1.47e7,inactive
CG34159,DRSC23222,4.48e7,3.40e7,,2.13e7,1.64e7,inactive
snk,DRSC17060,2.25e7,3.39e7,,1.16e7,4.78e7,inactive
sut1,DRSC07700,4.67e7,3.22e7,,1.93e7,1.54e7,inactive
CG17271,DRSC15210,4.02e7,5.03e7,,6.17e7,2.31e7,inactive
CG17271,DRSC22629,4.17e7,3.57e7,,2.73e7,2.03e7,inactive
CG17271,DRSC22982,6.23e7,2.29e7,,3.06e7,1.06e7,inactive
Papst2,DRSC10924,2.99e7,4.14e7,,1.30e7,2.69e7,inactive
CtBP,DRSC16617,2.32e7,2.35e7,,1.27e7,1.34e7,inactive
Pxt,DRSC17040,3.11e7,3.04e7,,3.00e7,1.37e7,inactive
CG34353,DRSC14493,3.47e7,3.75e7,,1.65e7,1.59e7,inactive
CG34353,DRSC14517,2.53e7,3.74e7,,1.31e7,1.73e7,inactive
CG34353,DRSC14563,2.79e7,4.71e7,,1.38e7,2.15e7,inactive
CG34353,DRSC15837,2.74e7,4.51e7,,1.42e7,2.00e7,inactive
CG34353,DRSC22429,3.70e7,3.80e7,,1.87e7,1.53e7,inactive
